# Reference: patent US20250011448A1 (STAIDSON BIOPHARMA, published 2025)
# The chains behind the UniProt entries cited, without tags or fusion partners. Where a name states a change or a piece, a line headed by the entry shows the natural chain unless it says otherwise.
# UniProt P20333: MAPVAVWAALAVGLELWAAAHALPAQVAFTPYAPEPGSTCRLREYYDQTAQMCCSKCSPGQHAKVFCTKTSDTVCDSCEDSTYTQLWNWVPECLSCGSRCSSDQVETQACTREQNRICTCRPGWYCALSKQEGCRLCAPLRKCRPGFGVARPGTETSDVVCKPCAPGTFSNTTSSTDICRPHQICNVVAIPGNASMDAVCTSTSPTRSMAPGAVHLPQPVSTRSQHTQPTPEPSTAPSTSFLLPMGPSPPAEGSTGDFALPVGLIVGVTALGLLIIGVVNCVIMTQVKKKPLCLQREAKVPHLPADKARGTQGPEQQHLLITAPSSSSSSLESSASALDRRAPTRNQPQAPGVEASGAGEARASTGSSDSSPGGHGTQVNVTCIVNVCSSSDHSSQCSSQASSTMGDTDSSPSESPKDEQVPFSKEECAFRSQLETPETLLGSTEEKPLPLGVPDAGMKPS
# Numbering of substitutions follows the chain as printed. These are yes or no findings as the source states them, for the method shown. Some entries that bind do so weakly or less than the wild type.
# B1: 29G3 chimeric anti-TNFR2 antibody (antibody, V domains shown)
# VH: EVMLVESGGASVKPGGSLKLSCAASGFTFSNFAMSWVRQTPEKRLEWVATIRSGDNYSYYSDNVKGRFTISRDNARNTLYLQMSSLRSKDTSIYYCARNWDKVFDYWGQGTTLTVSS
# VL: DIVLTQSPASLAVSLGQRATISCRASESVDSYGYSFMHWYQQKPGQPPKLLIYRASNLKSGIPARFSGSGSRTDFTLTINPVEADDVATYYCQQSNEDHTFGGGTKLEIK
# notes: Chimeric: mouse variable domains with human constant regions, made as recombinant IgG1
# B2: 102E4 chimeric anti-TNFR2 antibody (antibody, V domains shown)
# VH: EVLLQQSGAELVRPGASVKLSCTASGFNIKDDFIHWVQQRPEQGLEWIGRINPSNANTEYAPKFQDKATITTDTSSNTAYLQLSSLTSEDTAVYYCTRNDGYYDGLFYWGQGTTLTVSS
# VL: DIVMTQSHKFMSSSVGDRVSITCKASQDVGTAVAWYQQKPGQSPKLLIYWASTRHTGVPDRFTGSGSGTDFTLTISNVQSEDLADYFCQQYSSYPFTFGSGTKLEIK
# notes: as for B1
# B3: 85G8.4 chimeric anti-TNFR2 antibody (antibody, V domains shown)
# VH: EVQLQQSGPELVKPGASVKISCKTSGYTFTDFNMDWVKQSHGKSLEWIGYINPNNGDAAYNQKFKSKATLTVDKSSNTAYMELHSLTSDDSAVYYCARWGWAFAYWGQGTLVTVSA
# VL: DIVMTQSHKIMSTSVGDRVSITCKASQDVKTAVAWYQQKPGQSPKLLIYATSYRYTGVPDRFTGSGSGTDFTFTISTVQAEDLAVYYCQQHYSIPYTFGGGTKLEIK
# notes: as for B1
# B4: 15H10 chimeric anti-TNFR2 antibody (antibody, V domains shown)
# VH: DVQLQESGPGLVTPSQSLSLTCSVTGYSITSGYYWNWIRQFPGNKLEWMGYITYDGNNNYNPSLKSRFSITRDTSKNQFFLKLNSVTSEDTATYYCARGDYGDSAMDYWGQGTSVTVSS
# VL: EIVLTQSPAITAASLGQKVTITCSASSGVNYMHWYQQKSGTSPKPWIYEISKLASGVPARFSGSGSGTSYSLTISSMEAEDAAIYYCQQWNYPLITFGAGTKVELK
# notes: as for B1
# B5: 11C1 chimeric anti-TNFR2 antibody (antibody, V domains shown)
# VH: B4 VH with Q5R, F41I, N61D, S66N, F68I, K82T
# VL: B4 VL with G28S, N30S, T73I, V103L
# notes: as for B1
# Target: human TNFR2 extracellular domain fused to human IgG1 Fc (human) (UniProt P20333)
# Assay: blocking ELISA
row,binding,Binder
1,binds,B1
2,binds,B2
3,binds,B3
4,binds,B4
5,binds,B5

# Target: human TNFR2 extracellular domain fused to human IgG1 Fc (human) (UniProt P20333)
# Assay: blocking ELISA: antibody pre-mixed with TNFR2-huFc, binding to plate-coated human TNFα measured; y axis % inhibition of binding to huTNFa
row,binding,Binder
1,binds,B1
2,binds,B2
3,binds,B3
4,binds,B4
5,binds,B5
